From publication PMC11669506
These are yes or no findings as the source states them, for the method shown. In cells and extracts the contact can be indirect. Some entries that bind do so weakly or less than the wild type.

Amino acid sequences for entries named in this document (tags omitted).
UniProt Q3TKT4: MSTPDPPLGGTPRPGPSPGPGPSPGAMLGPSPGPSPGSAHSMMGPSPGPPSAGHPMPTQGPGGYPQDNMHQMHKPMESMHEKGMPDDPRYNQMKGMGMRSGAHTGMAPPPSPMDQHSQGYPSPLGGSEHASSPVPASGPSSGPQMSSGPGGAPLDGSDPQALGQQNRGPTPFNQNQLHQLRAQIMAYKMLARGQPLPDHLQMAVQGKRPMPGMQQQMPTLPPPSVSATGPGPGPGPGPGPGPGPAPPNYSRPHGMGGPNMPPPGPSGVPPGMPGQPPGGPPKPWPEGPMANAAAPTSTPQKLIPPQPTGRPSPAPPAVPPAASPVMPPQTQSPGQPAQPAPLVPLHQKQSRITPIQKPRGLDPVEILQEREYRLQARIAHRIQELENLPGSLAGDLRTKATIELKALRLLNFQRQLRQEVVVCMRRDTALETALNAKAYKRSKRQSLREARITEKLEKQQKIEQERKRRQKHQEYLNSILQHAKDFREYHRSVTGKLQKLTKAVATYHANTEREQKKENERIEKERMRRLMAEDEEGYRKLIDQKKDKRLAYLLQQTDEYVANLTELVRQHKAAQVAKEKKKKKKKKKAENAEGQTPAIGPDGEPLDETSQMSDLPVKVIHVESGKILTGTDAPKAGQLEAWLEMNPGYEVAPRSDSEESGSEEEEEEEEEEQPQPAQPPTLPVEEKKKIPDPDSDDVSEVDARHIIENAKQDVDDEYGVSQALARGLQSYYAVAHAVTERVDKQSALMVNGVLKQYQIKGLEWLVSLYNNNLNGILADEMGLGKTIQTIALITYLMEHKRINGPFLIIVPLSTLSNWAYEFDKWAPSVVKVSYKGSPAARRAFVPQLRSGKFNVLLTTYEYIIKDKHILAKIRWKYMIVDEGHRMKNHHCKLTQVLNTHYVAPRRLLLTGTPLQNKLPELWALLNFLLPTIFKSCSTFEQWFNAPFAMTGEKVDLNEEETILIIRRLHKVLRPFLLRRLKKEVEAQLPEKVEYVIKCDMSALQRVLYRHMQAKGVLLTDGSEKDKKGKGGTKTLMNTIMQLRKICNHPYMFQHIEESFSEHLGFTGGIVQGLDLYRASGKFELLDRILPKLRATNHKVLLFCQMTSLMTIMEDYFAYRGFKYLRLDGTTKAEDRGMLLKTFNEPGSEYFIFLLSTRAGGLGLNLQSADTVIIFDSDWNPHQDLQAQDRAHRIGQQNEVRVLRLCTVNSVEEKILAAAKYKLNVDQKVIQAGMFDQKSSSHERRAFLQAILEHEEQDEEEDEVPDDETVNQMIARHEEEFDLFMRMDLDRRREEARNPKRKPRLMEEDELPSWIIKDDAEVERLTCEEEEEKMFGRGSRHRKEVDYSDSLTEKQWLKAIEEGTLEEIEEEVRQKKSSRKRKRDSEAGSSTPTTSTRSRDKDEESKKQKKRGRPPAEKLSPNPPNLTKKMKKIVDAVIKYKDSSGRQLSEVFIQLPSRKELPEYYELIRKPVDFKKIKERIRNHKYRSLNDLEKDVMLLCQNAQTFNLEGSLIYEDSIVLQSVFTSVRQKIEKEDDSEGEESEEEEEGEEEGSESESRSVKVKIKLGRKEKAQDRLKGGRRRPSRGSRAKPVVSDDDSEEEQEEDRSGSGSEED
UniProt Q03347: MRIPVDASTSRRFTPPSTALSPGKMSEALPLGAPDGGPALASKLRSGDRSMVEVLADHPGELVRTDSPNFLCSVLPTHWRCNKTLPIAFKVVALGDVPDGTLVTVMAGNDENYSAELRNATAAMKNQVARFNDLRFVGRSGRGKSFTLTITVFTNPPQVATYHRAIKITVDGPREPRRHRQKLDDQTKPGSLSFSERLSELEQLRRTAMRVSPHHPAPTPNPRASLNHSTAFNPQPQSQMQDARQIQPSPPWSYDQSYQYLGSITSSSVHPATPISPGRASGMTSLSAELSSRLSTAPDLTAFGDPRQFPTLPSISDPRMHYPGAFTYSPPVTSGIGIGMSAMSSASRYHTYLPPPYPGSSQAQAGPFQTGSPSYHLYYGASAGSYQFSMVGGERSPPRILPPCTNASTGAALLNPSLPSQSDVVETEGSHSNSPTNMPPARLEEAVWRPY

Biological target: Brahma-related gene 1 (Brg1) (mouse (endogenous in neonatal mouse cardiomyocytes)) (UniProt Q3TKT4)
Experiment: co-IP; nucleoprotein extracted from neonatal mouse cardiomyocytes; IP antibody or IgG with lysate at 4°C overnight, Protein A or Protein G magnetic beads, SDS-PAGE detection; which protein was precipitated is not told

With RUNX1 (from UniProt Q03347 1-451) the binding was “binds”.
